According to the supplement of paper PMC11006884:
The targets with a hit were mostly taken out for another list; the other results follow. The data scatter; read single values as rough. The list shows a part of the results, in another mix than the full data.

Chains of the proteins cited; added tags and fusions are not shown. Lines headed by an entry give the natural chain unless they say otherwise; changes in a name come on top.
UniProt P27348: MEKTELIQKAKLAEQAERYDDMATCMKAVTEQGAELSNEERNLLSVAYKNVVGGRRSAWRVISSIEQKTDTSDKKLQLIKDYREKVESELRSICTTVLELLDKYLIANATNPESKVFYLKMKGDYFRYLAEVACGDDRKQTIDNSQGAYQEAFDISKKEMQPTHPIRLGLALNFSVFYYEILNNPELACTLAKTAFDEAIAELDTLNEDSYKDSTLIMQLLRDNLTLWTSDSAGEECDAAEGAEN
UniProt P21333, whole entry, looked up: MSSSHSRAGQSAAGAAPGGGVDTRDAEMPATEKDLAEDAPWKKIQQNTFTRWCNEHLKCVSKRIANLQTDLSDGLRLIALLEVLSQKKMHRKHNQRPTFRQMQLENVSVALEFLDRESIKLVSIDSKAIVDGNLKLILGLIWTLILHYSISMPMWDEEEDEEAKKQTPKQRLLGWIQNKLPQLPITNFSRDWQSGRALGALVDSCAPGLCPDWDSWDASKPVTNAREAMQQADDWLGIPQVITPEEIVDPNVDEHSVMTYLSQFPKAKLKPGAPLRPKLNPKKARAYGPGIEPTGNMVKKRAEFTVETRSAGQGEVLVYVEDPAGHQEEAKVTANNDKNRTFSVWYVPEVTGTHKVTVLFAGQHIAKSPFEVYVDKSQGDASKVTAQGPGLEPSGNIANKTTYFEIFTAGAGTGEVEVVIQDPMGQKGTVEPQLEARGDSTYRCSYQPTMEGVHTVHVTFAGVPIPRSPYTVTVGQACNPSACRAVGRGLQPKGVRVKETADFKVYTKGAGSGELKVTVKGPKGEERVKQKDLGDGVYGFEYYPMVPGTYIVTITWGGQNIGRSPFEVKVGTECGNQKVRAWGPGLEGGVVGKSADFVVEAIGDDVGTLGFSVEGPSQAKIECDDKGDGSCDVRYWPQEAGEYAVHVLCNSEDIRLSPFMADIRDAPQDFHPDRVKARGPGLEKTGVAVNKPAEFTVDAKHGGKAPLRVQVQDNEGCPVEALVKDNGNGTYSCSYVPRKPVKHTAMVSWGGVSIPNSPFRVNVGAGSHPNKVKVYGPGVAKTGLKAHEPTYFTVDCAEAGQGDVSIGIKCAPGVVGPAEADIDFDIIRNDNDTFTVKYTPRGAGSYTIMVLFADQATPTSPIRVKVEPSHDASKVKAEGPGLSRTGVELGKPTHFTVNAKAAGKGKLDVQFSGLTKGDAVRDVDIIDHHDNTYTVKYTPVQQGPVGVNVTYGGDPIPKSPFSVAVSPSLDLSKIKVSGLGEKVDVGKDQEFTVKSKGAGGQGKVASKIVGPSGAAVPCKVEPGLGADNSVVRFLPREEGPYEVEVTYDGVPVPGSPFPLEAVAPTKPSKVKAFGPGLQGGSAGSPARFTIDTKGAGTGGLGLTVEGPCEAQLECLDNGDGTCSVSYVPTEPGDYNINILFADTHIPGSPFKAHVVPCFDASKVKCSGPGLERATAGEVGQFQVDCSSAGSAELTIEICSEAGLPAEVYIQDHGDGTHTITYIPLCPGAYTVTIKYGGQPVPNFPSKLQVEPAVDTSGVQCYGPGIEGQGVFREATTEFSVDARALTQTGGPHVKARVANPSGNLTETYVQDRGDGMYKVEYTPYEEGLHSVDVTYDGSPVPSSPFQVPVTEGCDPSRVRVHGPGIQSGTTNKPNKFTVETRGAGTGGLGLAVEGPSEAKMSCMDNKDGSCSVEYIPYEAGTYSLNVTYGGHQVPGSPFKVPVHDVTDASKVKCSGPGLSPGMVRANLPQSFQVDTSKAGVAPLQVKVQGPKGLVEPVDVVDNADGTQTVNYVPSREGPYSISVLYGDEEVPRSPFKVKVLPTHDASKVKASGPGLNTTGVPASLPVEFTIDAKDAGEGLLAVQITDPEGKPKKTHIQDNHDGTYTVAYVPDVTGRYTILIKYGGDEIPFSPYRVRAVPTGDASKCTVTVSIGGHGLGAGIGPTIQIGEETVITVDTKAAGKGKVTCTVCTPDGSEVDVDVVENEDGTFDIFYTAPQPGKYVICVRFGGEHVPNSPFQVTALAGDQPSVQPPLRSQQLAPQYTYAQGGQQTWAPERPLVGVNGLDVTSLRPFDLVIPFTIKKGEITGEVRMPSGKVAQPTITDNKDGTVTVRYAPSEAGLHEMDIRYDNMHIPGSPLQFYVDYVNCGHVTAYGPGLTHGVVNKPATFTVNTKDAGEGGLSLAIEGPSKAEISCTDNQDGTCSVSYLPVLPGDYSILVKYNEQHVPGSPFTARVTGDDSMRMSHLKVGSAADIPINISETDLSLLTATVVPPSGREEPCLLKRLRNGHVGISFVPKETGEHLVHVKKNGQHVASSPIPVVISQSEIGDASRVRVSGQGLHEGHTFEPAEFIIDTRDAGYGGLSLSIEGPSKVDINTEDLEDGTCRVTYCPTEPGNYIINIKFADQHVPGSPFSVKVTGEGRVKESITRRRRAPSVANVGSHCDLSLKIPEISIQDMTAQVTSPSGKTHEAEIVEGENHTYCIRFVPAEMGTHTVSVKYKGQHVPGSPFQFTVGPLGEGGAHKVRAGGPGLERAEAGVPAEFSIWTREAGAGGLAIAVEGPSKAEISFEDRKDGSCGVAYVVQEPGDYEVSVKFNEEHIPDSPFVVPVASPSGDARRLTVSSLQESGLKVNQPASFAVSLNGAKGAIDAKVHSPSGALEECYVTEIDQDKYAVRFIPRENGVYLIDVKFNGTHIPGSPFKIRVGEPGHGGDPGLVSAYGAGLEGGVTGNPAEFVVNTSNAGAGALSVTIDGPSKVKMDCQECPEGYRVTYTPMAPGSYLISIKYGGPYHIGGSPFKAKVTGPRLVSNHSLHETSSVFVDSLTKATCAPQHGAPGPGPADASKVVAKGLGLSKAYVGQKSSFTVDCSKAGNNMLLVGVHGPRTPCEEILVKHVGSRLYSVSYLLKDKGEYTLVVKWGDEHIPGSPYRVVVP
UniProt P26358: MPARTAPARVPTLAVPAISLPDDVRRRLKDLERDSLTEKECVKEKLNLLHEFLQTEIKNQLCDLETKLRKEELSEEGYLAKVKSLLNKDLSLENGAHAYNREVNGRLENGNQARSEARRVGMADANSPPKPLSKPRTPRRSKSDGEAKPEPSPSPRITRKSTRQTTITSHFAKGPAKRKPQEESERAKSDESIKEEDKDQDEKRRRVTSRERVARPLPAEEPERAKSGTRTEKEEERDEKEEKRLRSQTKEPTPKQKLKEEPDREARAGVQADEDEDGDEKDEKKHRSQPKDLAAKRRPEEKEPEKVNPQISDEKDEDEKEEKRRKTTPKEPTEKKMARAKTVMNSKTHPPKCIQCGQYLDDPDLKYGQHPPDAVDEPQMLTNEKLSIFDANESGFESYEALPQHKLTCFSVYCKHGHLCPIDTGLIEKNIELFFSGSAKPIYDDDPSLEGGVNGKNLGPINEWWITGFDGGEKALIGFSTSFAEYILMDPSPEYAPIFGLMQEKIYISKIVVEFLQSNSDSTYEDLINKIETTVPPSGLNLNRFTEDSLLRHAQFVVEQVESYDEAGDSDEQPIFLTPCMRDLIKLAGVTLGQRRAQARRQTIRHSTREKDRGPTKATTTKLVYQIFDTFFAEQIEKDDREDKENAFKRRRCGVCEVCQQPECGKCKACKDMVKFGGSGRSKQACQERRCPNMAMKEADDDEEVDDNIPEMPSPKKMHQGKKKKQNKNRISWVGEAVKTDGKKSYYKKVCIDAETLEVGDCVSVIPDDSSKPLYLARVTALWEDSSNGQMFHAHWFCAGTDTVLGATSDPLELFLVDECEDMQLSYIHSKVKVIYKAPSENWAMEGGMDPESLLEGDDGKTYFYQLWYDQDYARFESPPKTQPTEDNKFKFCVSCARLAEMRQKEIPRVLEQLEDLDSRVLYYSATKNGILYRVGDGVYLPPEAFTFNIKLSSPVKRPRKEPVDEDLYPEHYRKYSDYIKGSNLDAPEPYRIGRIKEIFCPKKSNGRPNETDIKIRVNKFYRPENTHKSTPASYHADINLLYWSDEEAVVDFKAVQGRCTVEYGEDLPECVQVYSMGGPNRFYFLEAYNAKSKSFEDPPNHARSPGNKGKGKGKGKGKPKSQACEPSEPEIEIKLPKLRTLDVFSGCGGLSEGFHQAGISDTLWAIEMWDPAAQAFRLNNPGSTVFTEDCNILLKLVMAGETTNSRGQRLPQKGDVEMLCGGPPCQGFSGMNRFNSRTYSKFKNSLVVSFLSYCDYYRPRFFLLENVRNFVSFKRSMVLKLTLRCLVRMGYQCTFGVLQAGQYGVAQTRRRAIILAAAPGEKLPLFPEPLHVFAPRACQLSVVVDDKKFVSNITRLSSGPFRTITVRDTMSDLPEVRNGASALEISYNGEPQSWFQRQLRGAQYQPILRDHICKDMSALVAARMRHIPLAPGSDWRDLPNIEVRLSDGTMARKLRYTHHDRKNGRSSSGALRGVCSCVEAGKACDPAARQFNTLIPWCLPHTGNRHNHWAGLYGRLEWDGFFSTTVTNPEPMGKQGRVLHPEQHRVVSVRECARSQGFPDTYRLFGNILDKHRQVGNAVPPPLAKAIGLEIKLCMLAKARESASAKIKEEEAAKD
UniProt P22102: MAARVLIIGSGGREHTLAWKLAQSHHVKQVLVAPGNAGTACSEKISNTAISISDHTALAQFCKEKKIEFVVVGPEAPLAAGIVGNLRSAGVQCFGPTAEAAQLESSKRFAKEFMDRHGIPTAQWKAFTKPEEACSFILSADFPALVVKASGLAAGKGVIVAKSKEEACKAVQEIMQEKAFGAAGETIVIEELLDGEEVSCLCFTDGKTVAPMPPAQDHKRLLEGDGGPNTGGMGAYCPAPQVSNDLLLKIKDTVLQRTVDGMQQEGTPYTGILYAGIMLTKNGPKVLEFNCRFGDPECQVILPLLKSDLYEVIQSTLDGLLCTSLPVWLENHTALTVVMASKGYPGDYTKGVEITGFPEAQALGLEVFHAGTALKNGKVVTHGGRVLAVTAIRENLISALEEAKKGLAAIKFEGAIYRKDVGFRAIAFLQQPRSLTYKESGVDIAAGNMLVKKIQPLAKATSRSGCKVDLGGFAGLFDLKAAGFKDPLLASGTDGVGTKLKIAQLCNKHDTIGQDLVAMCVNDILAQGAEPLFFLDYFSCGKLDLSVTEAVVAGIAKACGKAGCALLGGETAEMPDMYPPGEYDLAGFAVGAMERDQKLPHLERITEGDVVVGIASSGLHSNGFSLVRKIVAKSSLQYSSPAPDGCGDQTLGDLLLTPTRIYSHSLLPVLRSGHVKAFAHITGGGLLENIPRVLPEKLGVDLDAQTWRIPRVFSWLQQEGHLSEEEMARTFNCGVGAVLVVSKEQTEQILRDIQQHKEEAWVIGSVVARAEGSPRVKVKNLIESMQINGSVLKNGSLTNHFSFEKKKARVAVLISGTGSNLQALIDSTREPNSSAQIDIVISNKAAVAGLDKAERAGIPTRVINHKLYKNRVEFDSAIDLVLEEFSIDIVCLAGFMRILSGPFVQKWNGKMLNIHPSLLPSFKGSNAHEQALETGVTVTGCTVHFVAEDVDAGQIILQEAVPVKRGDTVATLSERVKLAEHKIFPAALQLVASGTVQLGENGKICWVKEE
UniProt P28331, whole entry, looked up: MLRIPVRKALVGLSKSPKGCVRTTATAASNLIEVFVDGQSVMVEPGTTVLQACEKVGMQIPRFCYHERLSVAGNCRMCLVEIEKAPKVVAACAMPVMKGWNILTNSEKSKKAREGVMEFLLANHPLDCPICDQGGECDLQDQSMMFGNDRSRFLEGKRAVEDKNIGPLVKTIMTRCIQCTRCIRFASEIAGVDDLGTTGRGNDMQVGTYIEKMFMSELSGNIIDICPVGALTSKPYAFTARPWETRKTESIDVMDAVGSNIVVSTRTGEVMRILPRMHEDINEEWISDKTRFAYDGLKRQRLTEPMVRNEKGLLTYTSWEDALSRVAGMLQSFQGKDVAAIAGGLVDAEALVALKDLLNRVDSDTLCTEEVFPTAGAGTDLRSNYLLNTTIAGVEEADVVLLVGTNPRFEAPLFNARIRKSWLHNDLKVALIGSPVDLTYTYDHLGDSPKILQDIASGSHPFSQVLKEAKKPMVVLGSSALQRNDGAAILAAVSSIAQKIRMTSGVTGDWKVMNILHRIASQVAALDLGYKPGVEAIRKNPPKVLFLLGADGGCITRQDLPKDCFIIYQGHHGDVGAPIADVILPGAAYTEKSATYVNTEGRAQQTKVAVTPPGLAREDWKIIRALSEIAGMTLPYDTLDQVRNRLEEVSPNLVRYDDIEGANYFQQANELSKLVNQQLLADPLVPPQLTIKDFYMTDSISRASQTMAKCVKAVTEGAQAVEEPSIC
UniProt P29084: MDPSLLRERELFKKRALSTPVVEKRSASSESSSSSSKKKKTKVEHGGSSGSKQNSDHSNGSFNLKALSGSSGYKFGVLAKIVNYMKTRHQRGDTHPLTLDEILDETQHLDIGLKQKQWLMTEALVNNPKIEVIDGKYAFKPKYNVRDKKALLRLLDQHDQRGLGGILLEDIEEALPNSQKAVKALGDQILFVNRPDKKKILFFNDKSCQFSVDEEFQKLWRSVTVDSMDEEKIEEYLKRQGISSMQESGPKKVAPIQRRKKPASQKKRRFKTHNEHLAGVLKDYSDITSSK

compound: COC(=O)/C=C/c1ccccc1 [methyl cinnamate]; experiment: log2 ratio of iodoacetamide-alkyne labeling of the cysteine site, DMSO over compound (competition); higher = stronger covalent engagement of the cysteine by the compound, active = 1 or more; conditions: 500 µM; treatment time 1 h; system: HEK293T cell lysate
How it was run: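 For each cysteine, the log2 competition ratio is mean control-channel reporter intensity over mean compound-channel reporter intensity. HEK293T lysate (2 mg/mL) was exposed to vehicle or electrophile (500 µM, 1 h, ambient temperature), labelled with iodoacetamide alkyne (1 h), clicked to sCIP-TMT reagents, digested overnight with trypsin at 37 °C, streptavidin-enriched and analysed by Orbitrap Eclipse LC-MS/MS with FAIMS and FragPipe. Cysteines quantified in only one of three replicates, each with duplicate channels, were excluded.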

log2 ratio of iodoacetamide-alkyne labeling, inactive:
YWHAQ C134 (UniProt P27348) 0.126
FLNA C1912 (UniProt P21333) 0.133
APC C1502 (UniProt P25054) 0.312
ANXA7 C363 (UniProt P20073) 0.0358
PSMC3 C240 (UniProt P17980) 0.332
RRM1 C790 (UniProt P23921) 0.194
DNMT1 C751 (UniProt P26358) -0.314
GART C466 (UniProt P22102) 0.0586
CANX C160 (UniProt P27824) 0.237
LIG1 C508 (UniProt P18858) 0.355
FBL C268 (UniProt P22087) 0.163
PLCG1 C247 (UniProt P19174) 0.0679
RPS3 C134 (UniProt P23396) 0.369
MCM3 C360 (UniProt P25205) 0.128
YWHAQ C25 (UniProt P27348) 0.0798
PFKL C630 (UniProt P17858) 0.141
ERP29 C157 (UniProt P30040) 0.0552
CAST C408 (UniProt P20810) 0.299
PRDX6 C91 (UniProt P30041) 0.18
PFKL C708 (UniProt P17858) 0.053
DNMT1 C1125 (UniProt P26358) 0.317
NDUFS1 C226 (UniProt P28331) -0.192
HK1 C813 (UniProt P19367) 0.171
GTF2E2 C208 (UniProt P29084) -0.23
UniProt P25398_C50 0.0589
APEX1 C93 (UniProt P27695) 0.125
AHCY C195 (UniProt P23526) 0.196
FLNA C1018 (UniProt P21333) 0.255
LAP3 C445 (UniProt P28838) 0.0705
FLNA C574 (UniProt P21333) 0.318
FLNA C649 (UniProt P21333) -0.307
PAICS C81 (UniProt P22234) -0.0135
GLDC C795 (UniProt P23378) -0.116
COMT C241 (UniProt P21964) 0.0166
CAST C413 (UniProt P20810) 0.359
FLNA C2107 (UniProt P21333) 0.132
APEX1 C208 (UniProt P27695) -0.223

Two records drawn at random from the list so far, as already listed:
log2 ratio of iodoacetamide-alkyne labeling, inactive:
YWHAQ C25 (UniProt P27348) 0.0798
RPS3 C134 (UniProt P23396) 0.369
